According to PMC9430734:
Results are given in words; binding and its absence hold for the method and conditions named. Binding seen in cells or lysates may run through a third protein. A yes stands for co-enrichment or nearness to the bait. Other partners may have been found.

Target: VgrG3 fused to a hemagglutinin epitope at its C terminus (VgrG3-HA) (Chromobacterium violaceum ATCC 12472)
Assay: affinity purification with mass spectrometry

B1: CV_2846 (protein, UniProt Q7NU57 1-66)
chain: MIGEVNFYGVYFPSLLVMMVIAFAASSLLRRALARLGLYRAVWHRSLFNFALYLIVLGATIALFHR
  binding: binds
